Source: paper PMC12411612
These are yes or no findings as the source states them, for the method shown. Binding seen in cells or lysates may run through a third protein. Binding can be weak; no strength is given. Sequences can lack the tags named with a protein.

Assays:
[1] = target: Flag-myocardin (adenovirus, in T/G HA-VSMCs) (not stated (human myocardin cDNA cloned for the plasmids)); assay: co-IP; nuclear extracts of T/G HA-VSMCs infected with Flag-myocardin adenovirus; 300 µg extract, antibody at 4 °C overnight, protein-A/G agarose, washed three times with RIPA lysis buffer; unspecific IgG as control; also with Ad-PARP1 or Ad-mut-PARP1 infection
His-myocardin (human) = assay: co-IP; HEK293T cells transfected at once with pcDNA3.1-His-myocardin, p3×FLAG-CMV9-PARP1 and pcDNA-3.1-HA-SRF; co-IP with anti-tag antibodies

Row | Binder | binding [1] | binding (His-myocardin (human))
1 | SRF (endogenous, T/G HA-VSMC) (protein, UniProt P11831 1-508) MLPTQAGAAAALGRGSALGGSLNRTPTGRPGGGGGTRGANGGRVPGNGAGLGPGRLEREAAAAAATTPAPTAGALYSGSEGDSESGEEEELGAERRGLKRSLSEMEIGMVVGGPEASAAATGGYGPVSGAVSGAKPGKKTRGRVKIKMEFIDNKLRRYTTFSKRKTGIMKKAYELSTLTGTQVLLLVASETGHVYTFATRKLQPMITSETGKALIQTCLNSPDSPPRSDPTTDQRMSATGFEETDLTYQVSESDSSGETKDTLKPAFTVTNLPGTTSTIQTAPSTSTTMQVSSGPSFPITNYLAPVSASVSPSAVSSANGTVLKSTGSGPVSSGGLMQLPTSFTLMPGGAVAQQVPVQAIQVHQAPQQASPSRDSSTDLTQTSSSGTVTLPATIMTSSVPTTVGGHMMYPSPHAVMYAPTSGLGDGSLTVLNAFSQAPSTMQVSHSQVQEPGGVPQVFLTASSGTVQIPVSAVQLHQMAVIGQQAGSSSNLTELQVVNLDTAHSTKSE | binds | 
2 | HA-SRF (pcDNA-3.1-HA-SRF), serum response factor (protein, UniProt P11831 1-508) MLPTQAGAAAALGRGSALGGSLNRTPTGRPGGGGGTRGANGGRVPGNGAGLGPGRLEREAAAAAATTPAPTAGALYSGSEGDSESGEEEELGAERRGLKRSLSEMEIGMVVGGPEASAAATGGYGPVSGAVSGAKPGKKTRGRVKIKMEFIDNKLRRYTTFSKRKTGIMKKAYELSTLTGTQVLLLVASETGHVYTFATRKLQPMITSETGKALIQTCLNSPDSPPRSDPTTDQRMSATGFEETDLTYQVSESDSSGETKDTLKPAFTVTNLPGTTSTIQTAPSTSTTMQVSSGPSFPITNYLAPVSASVSPSAVSSANGTVLKSTGSGPVSSGGLMQLPTSFTLMPGGAVAQQVPVQAIQVHQAPQQASPSRDSSTDLTQTSSSGTVTLPATIMTSSVPTTVGGHMMYPSPHAVMYAPTSGLGDGSLTVLNAFSQAPSTMQVSHSQVQEPGGVPQVFLTASSGTVQIPVSAVQLHQMAVIGQQAGSSSNLTELQVVNLDTAHSTKSE |  | binds
